In assay [1] the target is c-Myc (human (endogenous in H9 ES cells)) (UniProt P01106). In words: co-IP; whole-cell lysate of H9 human ES cells (50 mM Hepes pH 7.9, 1 mM MgCl2, 20 mM NaCl, 10 mM EDTA, 10% glycerol, 0.2% NP-40); immunoprecipitation with anti-c-Myc antibody overnight, protein-G-sepharose; Western blot; endogenous proteins.
The target in assay [2] is c-Myc (human (endogenous in H9 ES cells)), P01106. The assay is described as above. Particulars: remark: other sources report otherwise.

Chains of the proteins cited; added tags and fusions are not shown.
UniProt P01106: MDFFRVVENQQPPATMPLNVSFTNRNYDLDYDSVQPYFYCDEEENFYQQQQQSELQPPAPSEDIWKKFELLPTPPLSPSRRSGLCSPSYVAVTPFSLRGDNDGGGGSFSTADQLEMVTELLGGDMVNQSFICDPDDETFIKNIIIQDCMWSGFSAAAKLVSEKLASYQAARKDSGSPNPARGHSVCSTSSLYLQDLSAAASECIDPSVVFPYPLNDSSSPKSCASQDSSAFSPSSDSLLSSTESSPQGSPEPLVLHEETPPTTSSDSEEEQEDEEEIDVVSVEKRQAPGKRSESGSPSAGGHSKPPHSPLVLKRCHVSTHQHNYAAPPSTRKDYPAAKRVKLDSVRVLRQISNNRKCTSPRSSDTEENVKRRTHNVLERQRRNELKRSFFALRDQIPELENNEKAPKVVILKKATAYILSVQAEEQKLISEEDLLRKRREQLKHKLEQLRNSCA

These are yes or no findings as the source states them, for the method shown. Binding seen in cells or lysates may run through a third protein. Some binding calls cover weakened binding; strength is not graded here.

B1: Miz-1 (protein, UniProt Q13105 1-803)
chain: MDFPQHSQHVLEQLNQQRQLGLLCDCTFVVDGVHFKAHKAVLAACSEYFKMLFVDQKDVVHLDISNAAGLGQVLEFMYTAKLSLSPENVDDVLAVATFLQMQDIITACHALKSLAEPATSPGGNAEALATEGGDKRAKEEKVATSTLSRLEQAGRSTPIGPSRDLKEERGGQAQSAASGAEQTEKADAPREPPPVELKPDPTSGMAAAEAEAALSESSEQEMEVEPARKGEEEQKEQEEQEEEGAGPAEVKEEGSQLENGEAPEENENEESAGTDSGQELGSEARGLRSGTYGDRTESKAYGSVIHKCEDCGKEFTHTGNFKRHIRIHTGEKPFSCRECSKAFSDPAACKAHEKTHSPLKPYGCEECGKSYRLISLLNLHKKRHSGEARYRCEDCGKLFTTSGNLKRHQLVHSGEKPYQCDYCGRSFSDPTSKMRHLETHDTDKEHKCPHCDKKFNQVGNLKAHLKIHIADGPLKCRECGKQFTTSGNLKRHLRIHSGEKPYVCIHCQRQFADPGALQRHVRIHTGEKPCQCVMCGKAFTQASSLIAHVRQHTGEKPYVCERCGKRFVQSSQLANHIRHHDNIRPHKCSVCSKAFVNVGDLSKHIIIHTGEKPYLCDKCGRGFNRVDNLRSHVKTVHQGKAGIKILEPEEGSEVSVVTVDDMVTLATEALAATAVTQLTVVPVGAAVTADETEVLKAEISKAVKQVQEEDPNTHILYACDSCGDKFLDANSLAQHVRIHTAQALVMFQTDADFYQQYGPGGTWPAGQVLQAGELVFRPRDGAEGQPALAETSPTAPECPPPAE
As for B1, the binding entry in assay [1] is given as “binds”.

B2: TRIM28, Q13263 1-835 (protein)
chain: MAASAAAASAAAASAASGSPGPGEGSAGGEKRSTAPSAAASASASAAASSPAGGGAEALELLEHCGVCRERLRPEREPRLLPCLHSACSACLGPAAPAAANSSGDGGAAGDGTVVDCPVCKQQCFSKDIVENYFMRDSGSKAATDAQDANQCCTSCEDNAPATSYCVECSEPLCETCVEAHQRVKYTKDHTVRSTGPAKSRDGERTVYCNVHKHEPLVLFCESCDTLTCRDCQLNAHKDHQYQFLEDAVRNQRKLLASLVKRLGDKHATLQKSTKEVRSSIRQVSDVQKRVQVDVKMAILQIMKELNKRGRVLVNDAQKVTEGQQERLERQHWTMTKIQKHQEHILRFASWALESDNNTALLLSKKLIYFQLHRALKMIVDPVEPHGEMKFQWDLNAWTKSAEAFGKIVAERPGTNSTGPAPMAPPRAPGPLSKQGSGSSQPMEVQEGYGFGSGDDPYSSAEPHVSGVKRSRSGEGEVSGLMRKVPRVSLERLDLDLTADSQPPVFKVFPGSTTEDYNLIVIERGAAAAATGQPGTAPAGTPGAPPLAGMAIVKEEETEAAIGAPPTATEGPETKPVLMALAEGPGAEGPRLASPSGSTSSGLEVVAPEGTSAPGGGPGTLDDSATICRVCQKPGDLVMCNQCEFCFHLDCHLPALQDVPGEEWSCSLCHVLPDLKEEDGSLSLDGADSTGVVAKLSPANQRKCERVLLALFCHEPCRPLHQLATDSTFSLDQPGGTLDLTLIRARLQEKLSPPYSSPQEFAQDVGRMFKQFNKLTEDKADVQSIIGLQRFFETRMNEAFGDTKFSAVLVEPPPMSLPGAGLSSQELSGGPGDGP
With B2, the binding result in assay [2] is on record as “no binding”.
